From publication doi:10.1101/458760
These are yes or no findings as the source states them, for the method shown. Binding seen in cells or lysates may run through a third protein. Some entries that bind do so weakly or less than the wild type.

Sequences of proteins named here, by UniProt entry; tags and fusion partners are left off. Residues count along the entry.
UniProt P11835, residues 24-771: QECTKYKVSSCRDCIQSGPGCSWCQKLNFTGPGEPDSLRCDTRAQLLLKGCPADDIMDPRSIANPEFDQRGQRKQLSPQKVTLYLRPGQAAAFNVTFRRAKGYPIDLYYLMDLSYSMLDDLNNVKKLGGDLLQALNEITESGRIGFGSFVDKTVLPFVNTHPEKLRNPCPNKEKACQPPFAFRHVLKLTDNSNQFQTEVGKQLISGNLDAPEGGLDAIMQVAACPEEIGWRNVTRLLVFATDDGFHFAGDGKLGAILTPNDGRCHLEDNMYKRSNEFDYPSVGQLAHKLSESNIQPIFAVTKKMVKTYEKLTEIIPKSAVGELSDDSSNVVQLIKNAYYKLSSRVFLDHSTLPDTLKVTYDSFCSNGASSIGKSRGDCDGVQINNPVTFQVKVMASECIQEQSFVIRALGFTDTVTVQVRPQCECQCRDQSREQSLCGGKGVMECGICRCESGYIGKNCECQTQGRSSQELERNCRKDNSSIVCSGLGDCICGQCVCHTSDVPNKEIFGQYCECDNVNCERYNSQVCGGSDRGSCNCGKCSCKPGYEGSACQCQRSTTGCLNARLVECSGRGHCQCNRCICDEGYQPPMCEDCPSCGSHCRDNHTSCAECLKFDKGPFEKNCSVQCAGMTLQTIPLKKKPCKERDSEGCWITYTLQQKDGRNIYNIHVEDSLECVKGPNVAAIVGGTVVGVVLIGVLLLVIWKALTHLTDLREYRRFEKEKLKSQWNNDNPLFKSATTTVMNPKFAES

Biological target: CD18 (mouse (endogenous in neutrophils)) (UniProt P11835)
Assay: FRET or BRET

binding: binds
B1: Ly6G (protein, UniProt P35461 27-105)
chain: LECYNCIGVPPETSCNTTTCPFSDGFCVALEIEVIVDSHRSKVKSNLCLPICPTTLDNTEITGNAVNVKTYCCKEDLCN
